Reference: PubChem BioAssay AID2685 (National Center for Advancing Translational Sciences (NCATS), 2010)
Some of the results follow. The main result of the screen is listed elsewhere. These columns were measured beside it and carry no call. Most of these compounds were active or inconclusive in the main read-out, so they are no random draw. Words in brackets tell the shape of the fitted curve; partial curves, single points and poor fits give uncertain potencies.

Test: qHTS Assay for Lipid Storage Modulators in Drosophila S3 Cells;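 on cell number change: cells counted by Cell Tracker Red CMTPX staining in the red channel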
Conditions: BODIPY lipid droplet fluorescence, 18-24 h; for cell number change: measured here: cell count max response, cells fed with added oleic acid
Outline: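 Drosophila S3 cells got compounds at several concentrations plus oleic acid (400 uM solution). Laser-scanning cytometry with 488 nm excitation read lipid droplets at 500-530 nm and cells at 575-640 nm. Percent activity was relative to 20 uM Triacsin C.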

[1] = measured here: lipid fluorescence (Fed channel) AC50, cells fed with added oleic acid
[2] = measured here: cell number channel AC50, cells fed with added oleic acid

Row | SMILES | cell number change [%] | AC50 [1] | AC50 [2]
1 | Cc1c(C(=O)Nc2ccccc2N2CCOCC2)sc2nc3n(c(=O)c12)CCC3 | 0.593 |  | 
2 | COCCN(Cc1ccccc1)C(=O)c1ccc(C(=O)c2ccccc2)cc1 | -0.912 | 6.51 µM [falling, single point] | 
3 | CCCC(C(=O)Nc1ccc2c(C)cc(=O)oc2c1)c1ccccc1 (stereo not drawn) | 27 |  | 1.3 µM [rising, full curve, poor fit]
4 | CC(=O)N1c2ccc(S(=O)(=O)NCCC(=O)Nc3ccc(C)c(Cl)c3)cc2CC1C (stereo not drawn) | -22.5 |  | 6.51 µM [falling, partial curve]
5 | CCCCOc1ccc(CSc2ncn[nH]2)cc1 | -18.8 | 8.2 µM [rising, single point] | 
6 | CCOC(=O)c1cc(-c2ccccc2C)n(Cc2cc(C)no2)n1 | 0.453 | 1.16 µM [falling, single point] | 1.16 µM [falling, single point]
7 | Cc1ccc(C(=O)O)cc1S(=O)(=O)N1CCOCC1 | -34.4 | 29.1 µM [falling, single point] | 0.651 µM [falling, full curve, poor fit]
8 | C/C(=N\N=c1/scc(C)n1Cc1ccco1)c1cccc([N+](=O)[O-])c1 | -21.8 |  | 
9 | Cc1cc(C)c2nc(N3C(=O)C(O)=C(C(=O)c4ccco4)C3c3ccco3)sc2c1 (stereo not drawn) | 15.7 | 0.58 µM [rising, single point] | 
10 | COc1ccc(/C=N/NC(=O)CN(C2=NS(=O)(=O)c3ccccc32)c2ccccc2)cc1OC | -1.04 | 6.51 µM [rising, single point] | 
11 | Cc1ccc(OCc2nc(-c3ccccc3)no2)cc1 | 28.1 | 0.146 µM [falling, full curve, poor fit] | 
12 | S=C(NCc1ccccc1)NC1CCCc2ccccc21 (stereo not drawn) | -41.8 |  | 
13 | CCOC(=O)CSc1nc2c(c(=O)[nH]c(=O)n2C)n1C/C=C(/C)Cl | -8.33 | 0.92 µM [falling, full curve] | 
14 | CCOc1cc(C(=O)OCc2ccc(OC)cc2)ccc1OCC(=O)N1CCOCC1 | 44.5 |  | 16.4 µM [rising, single point]
15 | CCOc1ccc(NC(=O)COc2ccc(-n3cnnn3)cc2)cc1 | -55.5 | 4.61 µM [falling, single point] | 9.2 µM [falling, partial curve]
16 | Cc1ccc(NS(=O)(=O)c2ccc(NC(=O)CN(c3cc([N+](=O)[O-])ccc3C)S(C)(=O)=O)cc2)c(C)c1 | -10.1 |  | 
17 | CN(C)C(=O)c1ccc(NC(=O)COC(=O)/C=C/c2cccs2)cc1 | -4.06 | 2.59 µM [rising, single point] | 
18 | COc1cccc2cc(-c3nnc(SCC(=O)Nc4nc(C)cs4)n3C)oc12 | -73.9 | 20.6 µM [falling, partial curve] | 20.6 µM [falling, partial curve]
19 | O=C(NCc1ccccc1)c1ccc2nccnc2c1 |  | 0.58 µM [falling, single point] | 
20 | O=C1OC(/C(=C\NCc2ccccc2)[N+](=O)[O-])c2ccccc21 (stereo not drawn) | -16.9 | 0.651 µM [falling, partial curve, poor fit] | 
21 | COc1ccc(-n2ncc3c(NCCN4CCOCC4)ncnc32)cc1 | 0.809 |  | 
22 | CCOC(=O)c1c(C)[nH]c(C(=O)C(C)OC(=O)c2cnc(C)cn2)c1C (stereo not drawn) | -10.4 | 6.51 µM [falling, single point] | 
23 | COc1ccc(C(=O)NC2CCCc3c2cnn3-c2ccc(C)c(C)c2)c(OC)c1OC (stereo not drawn) | -45.8 |  | 9.2 µM [falling, partial curve]
24 | CSc1nsc(/C=C/Nc2cccc(Cl)c2)c1C#N | 80.5 | 0.651 µM [rising, full curve, poor fit] | 23.1 µM [rising, single point]
25 | O=C(Cc1ccc(Br)cc1)NNC(=O)Nc1ccc(Cl)cc1 | 118 | 29.1 µM [rising, single point] | 18.4 µM [rising, partial curve]
26 | CC1CN(C(=O)COC(=O)c2ccc(S(=O)(=O)N(C)C)cc2)CC(C)O1 (stereo not drawn) | -13.3 |  | 
27 | NS(=O)(=O)c1cc(C(=O)OCC(=O)N2CCOCC2)ccc1Cl | 6.76 | 0.58 µM [falling, single point] | 
28 | CC1CC(C)CN(C(=O)COC(=O)c2c[nH]c3ccccc23)C1 (stereo not drawn) |  | 1.3 µM [falling, full curve] | 
29 | COc1ccc(C(=O)NC(=S)NCc2cccnc2)cc1Br | -5.37 | 0.708 µM [falling, partial curve, poor fit] | 
30 | COc1ccc2nc(SCC(=O)Nc3c(C)cccc3C)[nH]c2c1 | 10.8 |  | 6.51 µM [rising, single point]

Only cell number change [%] (two entries from above):
Row	SMILES	cell number change [%]
3	CCCC(C(=O)Nc1ccc2c(C)cc(=O)oc2c1)c1ccccc1 (stereo not drawn)	27
4	CC(=O)N1c2ccc(S(=O)(=O)NCCC(=O)Nc3ccc(C)c(Cl)c3)cc2CC1C (stereo not drawn)	-22.5
